Measured values reported in US7893056B2, “Peptide deformylase inhibitors” (GlaxoSmithKline LLC, priority 2007, dated 2011).
Some of these results come from one statement about several compounds together.

Key:
[1] = target: T1, Staphylococcus aureus PDF (SaPDF) (Staphylococcus aureus, UniProt P68826); assay: PDF IC50 assay (FDH-coupled), S. aureus PDF; type: biochemical; settings: read-out: IC50, inhibition of S. aureus PDF activity
T1 sequence (P68826 1-183): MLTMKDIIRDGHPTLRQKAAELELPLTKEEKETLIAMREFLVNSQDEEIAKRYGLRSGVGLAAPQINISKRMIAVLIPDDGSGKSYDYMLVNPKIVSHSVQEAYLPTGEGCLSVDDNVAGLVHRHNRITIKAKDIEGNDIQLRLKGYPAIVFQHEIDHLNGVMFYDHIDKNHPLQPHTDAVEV

[2] = target: T2, Streptococcus pneumoniae PDF (Streptococcus pneumoniae serotype 4, UniProt Q9F2F0); assay: PDF IC50 assay (FDH-coupled), S. pneumoniae PDF; type: biochemical; settings: read-out: IC50, inhibition of S. pneumoniae PDF activity
T2 sequence (Q9F2F0 1-203): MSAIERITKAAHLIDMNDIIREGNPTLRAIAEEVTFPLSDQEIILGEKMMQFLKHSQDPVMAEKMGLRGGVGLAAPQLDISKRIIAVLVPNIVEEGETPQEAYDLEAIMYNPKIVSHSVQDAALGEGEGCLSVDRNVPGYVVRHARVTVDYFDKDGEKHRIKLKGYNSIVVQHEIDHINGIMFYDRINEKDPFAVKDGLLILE

| SMILES | IC50 [1] | IC50 [2] |
| --- | --- | --- |
| O=CN(O)C[C@@H](CC1CCCC1)C(=O)NNc1nc(Cl)nc(NC2CCC2)c1F [Example 168, [(2R)-3-{2-[2-Chloro-6-(cyclobutylamino)-5-fluoro-4-pyrimidinyl]hydrazino}-2-(cyclopentylmethyl)-3-oxopropyl]hydroxyformamide] | ≤ 0.1 µM | ≤ 0.1 µM |
| CSc1nc(NNC(=O)[C@H](CC2CCCC2)CN(O)C=O)c(F)c(N2CC[C@@H](N(C)C)C2)n1 [Example 50, ((2R)-2-(Cyclopentylmethyl)-3-{2-[6-[(3R)-3-(dimethylamino)-1-pyrrolidinyl]-5-fluoro-2-(methylthio)-4-pyrimidinyl]hydrazino}-3-oxopropyl)hydroxyformamide] | ≤ 0.1 µM | ≤ 0.1 µM |
| Cc1nc(NNC(=O)[C@H](CC2CCCC2)CN(O)C=O)c(F)c(N2CCN(C)C[C@@H]2CO)n1 [Example 144, [(2R)-2-(Cyclopentylmethyl)-3-(2-{5-fluoro-6-[(2R)-2-(hydroxymethyl)-4-methyl-1-piperazinyl]-2-methyl-4-pyrimidinyl}hydrazino)-3-oxopropyl]hydroxyformamide] | ≤ 0.1 µM | ≤ 0.1 µM |
| CN1CCN(c2nc(Cl)nc(NNC(=O)[C@H](CC3CCCC3)CN(O)C=O)c2F)CC1 [Example 4, [(2R)-3-{2-[2-Chloro-5-fluoro-6-(4-methyl-1-piperazinyl)-4-pyrimidinyl]hydrazino}-2-(cyclopentylmethyl)-3-oxopropyl]hydroxyformamide] | ≤ 0.1 µM | ≤ 0.1 µM |
| C[C@@H]1CN(c2nc(C(F)F)nc(NNC(=O)[C@H](CC3CCCC3)CN(O)C=O)c2F)CCN1C [Example 93, [(2R)-2-(Cyclopentylmethyl)-3-(2-{2-(difluoromethyl)-6-[(3R)-3,4-dimethyl-1-piperazinyl]-5-fluoro-4-pyrimidinyl}hydrazino)-3-oxopropyl]hydroxyformamide] | ≤ 0.1 µM | ≤ 0.1 µM |
| CC(C)[C@H]1CN(C)CCN1c1nc(Cl)nc(NNC(=O)[C@H](CC2CCCC2)CN(O)C=O)c1F [Example 171, [(2R)-3-(2-{2-Chloro-5-fluoro-6-[(2S)-4-methyl-2-(1-methylethyl)-1-piperazinyl]-4-pyrimidinyl}hydrazino)-2-(cyclopentylmethyl)-3-oxopropyl]hydroxyformamide] | ≤ 0.1 µM | ≤ 0.1 µM |
| Cc1nc(NNC(=O)[C@H](CC2CCCC2)CN(O)C=O)c(F)c(N2C[C@@H](C)N(C)C[C@H]2C)n1 [Example 215, N-[(2R)-2-(Cyclopentylmethyl)-3-(2-{5-fluoro-2-methyl-6-[(2R,5R)-2,4,5-trimethyl-1-piperazinyl]-4-pyrimidinyl}hydrazino)-3-oxopropyl]-N-hydroxyformamide] | ≤ 0.1 µM | ≤ 0.1 µM |
| CN(C)C1CN(c2nc(Cl)nc(NNC(=O)[C@H](CC3CCCC3)CN(O)C=O)c2F)CC1(C)C (mixture of isomers) [Example 133, [(2R)-3-(2-{2-Chloro-6-[4-(dimethylamino)-3,3-dimethyl-1-pyrrolidinyl]-5-fluoro-4-pyrimidinyl}hydrazino)-2-(cyclopentylmethyl)-3-oxopropyl]hydroxyformamide] | ≤ 0.1 µM | ≤ 0.1 µM |
| Cc1nc(NNC(=O)[C@H](CC2CCCC2)CN(O)C=O)c(F)c(N2CCN3CCOC[C@@H]3C2)n1 [Example 24, [(2R)-2-(Cyclopentylmethyl)-3-(2-{5-fluoro-6-[(9aS)-hexahydropyrazino[2,1-c][1,4]oxazin-8(1H)-yl]-2-methyl-4-pyrimidinyl}hydrazino)-3-oxopropyl]hydroxyformamide] | ≤ 0.1 µM | ≤ 0.1 µM |
| O=CN(O)C[C@@H](CC1CCCC1)C(=O)NNc1nc(Cl)nc(N2CC(O)(C3CC3)C2)c1F [Example 213, [(2R)-3-{2-[2-Chloro-6-(3-cyclopropyl-3-hydroxy-1-azetidinyl)-5-fluoro-4-pyrimidinyl]hydrazino}-2-(cyclopentylmethyl)-3-oxopropyl]hydroxyformamide] | ≤ 0.1 µM | ≤ 0.1 µM |
| O=CN(O)C[C@@H](CC1CCCC1)C(=O)NNc1nc(Cl)nc(N2CCC[C@H]2CO)c1F [Example 245, [(2R)-3-(2-{2-Chloro-5-fluoro-6-[(2S)-2-(hydroxymethyl)-1-pyrrolidinyl]-4-pyrimidinyl}hydrazino)-2-(cyclopentylmethyl)-3-oxopropyl]hydroxyformamide] | ≤ 0.1 µM | ≤ 0.1 µM |
| O=CN(O)C[C@@H](CC1CCCC1)C(=O)NNc1nc(Cl)nc(N2CC(F)C2)c1F [Example 244, [(2R)-3-{2-[2-Chloro-5-fluoro-6-(3-fluoro-1-azetidinyl)-4-pyrimidinyl]hydrazino}-2-(cyclopentylmethyl)-3-oxopropyl]hydroxyformamide] | ≤ 0.1 µM | ≤ 0.1 µM |
| CN1C[C@@H]2CN(c3nc(Cl)nc(NNC(=O)[C@H](CC4CCCC4)CN(O)C=O)c3F)C[C@@H]2C1(C)C (racemic) [Example 184, [(2R)-3-{2-[2-Chloro-5-fluoro-6-(4,4,5-trimethylhexahydropyrrolo[3,4-c]pyrrol-2(1H)-yl)-4-pyrimidinyl]hydrazino}-2-(cyclopentylmethyl)-3-oxopropyl]hydroxyformamide] | ≤ 0.1 µM | ≤ 0.1 µM |
| Cc1nc(NNC(=O)[C@H](CC2CCCC2)CN(O)C=O)c(F)c(N2CCC[C@H]2C2(N3CCCC3)CC2)n1 [Example 210, {(2R)-2-(Cyclopentylmethyl)-3-[2-(5-fluoro-2-methyl-6-{(2S)-2-[1-(1-pyrrolidinyl)cyclopropyl]-1-pyrrolidinyl}-4-pyrimidinyl)hydrazino]-3-oxopropyl}hydroxyformamide] | ≤ 0.1 µM | ≤ 0.1 µM |
| O=CN(O)C[C@@H](CC1CCCC1)C(=O)NNc1nc(Cl)nc(N2CCC[C@H]2Cn2nnc3cncnc32)c1F [Example 274, [(2R)-3-(2-{2-Chloro-5-fluoro-6-[(2S)-2-(3H-[1,2,3]triazolo[4,5-d]pyrimidin-3-ylmethyl)-1-pyrrolidinyl]-4-pyrimidinyl}hydrazino)-2-(cyclopentylmethyl)-3-oxopropyl]hydroxyformamide] | ≤ 0.1 µM | ≤ 0.1 µM |
| O=CN(O)C[C@@H](CC1CCC1)C(=O)NNc1nc(Cl)nc(N2CCN3CCOC[C@@H]3C2)c1F [Example 277, [(2R)-3-(2-{2-Chloro-5-fluoro-6-[(9aS)-hexahydropyrazino[2,1-c][1,4]oxazin-8(1H)-yl]-4-pyrimidinyl}hydrazino)-2-(cyclobutylmethyl)-3-oxopropyl]hydroxyformamide] | ≤ 0.1 µM | ≤ 0.1 µM |
| N#C[C@@H]1CCCN1c1nc(Cl)nc(NNC(=O)[C@H](CC2CCCC2)CN(O)C=O)c1F [Example 257, [(2R)-3-(2-{2-Chloro-6-[(2S)-2-cyano-1-pyrrolidinyl]-5-fluoro-4-pyrimidinyl}hydrazino)-2-(cyclopentylmethyl)-3-oxopropyl]hydroxyformamide] | ≤ 0.1 µM | ≤ 0.1 µM |
| Cc1nc(NNC(=O)[C@H](CC2CCCC2)CN(O)C=O)c(F)c(N2CCCC2)n1 [Example 1, ((2R)-2-(Cyclopentylmethyl)-3-{2-[5-fluoro-2-methyl-6-(1-pyrrolidinyl)-4-pyrimidinyl]hydrazino}-3-oxopropyl)hydroxyformamide] | ≤ 0.1 µM | ≤ 0.1 µM |
| CN1CCN(N(Cc2nccs2)c2nc(Cl)nc(NNC(=O)[C@H](CC3CCCC3)CN(O)C=O)c2F)CC1 [Example 273, [(2R)-3-(2-{2-Chloro-5-fluoro-6-[(4-methyl-1-piperazinyl)(1,3-thiazol-2-ylmethyl)amino]-4-pyrimidinyl}hydrazino)-2-(cyclopentylmethyl)-3-oxopropyl]hydroxyformamide] | ≤ 0.1 µM | ≤ 0.1 µM |
| Cc1nc(NNC(=O)[C@H](CC2CCCC2)CN(O)C=O)c(F)c(N2CC[C@H](CO)C2)n1 [Example 23, [(2R)-2-(Cyclopentylmethyl)-3-(2-{5-fluoro-6-[(3S)-3-(hydroxymethyl)-1-pyrrolidinyl]-2-methyl-4-pyrimidinyl}hydrazino)-3-oxopropyl]hydroxyformamide] | ≤ 0.1 µM | ≤ 0.1 µM |
| CCN(C)C1(CC)CN(c2nc(Cl)nc(NNC(=O)[C@H](CC3CCCC3)CN(O)C=O)c2F)C1 [Example 230, [(2R)-3-[2-(2-Chloro-6-{3-ethyl-3-[ethyl(methyl)amino]-1-azetidinyl}-5-fluoro-4-pyrimidinyl)hydrazino]-2-(cyclopentylmethyl)-3-oxopropyl]hydroxyformamide] | ≤ 0.1 µM | ≤ 0.1 µM |
| CN(C)c1nc(CF)nc(NNC(=O)[C@H](CC2CCCC2)CN(O)C=O)c1F [Example 67, ((2R)-2-(Cyclopentylmethyl)-3-{2-[6-(dimethylamino)-5-fluoro-2-(fluoromethyl)-4-pyrimidinyl]hydrazino}-3-oxopropyl)hydroxyformamide] | ≤ 0.1 µM | ≤ 0.1 µM |
| CN(CCO)c1nc(Cl)nc(NNC(=O)[C@H](CC2CCCC2)CN(O)C=O)c1F [Example 55, [(2R)-3-(2-{2-Chloro-5-fluoro-6-[(2-hydroxyethyl)(methyl)amino]-4-pyrimidinyl}hydrazino)-2-(cyclopentylmethyl)-3-oxopropyl]hydroxyformamide] | ≤ 0.1 µM | ≤ 0.1 µM |
| CCN1CCCN1c1nc(Cl)nc(NNC(=O)[C@H](CC2CCCC2)CN(O)C=O)c1F [Example 259, [(2R)-3-{2-[2-Chloro-5-fluoro-6-(2-ethyl-1-pyrazolidinyl)-4-pyrimidinyl]hydrazino}-2-(cyclopentylmethyl)-3-oxopropyl]hydroxyformamide] | ≤ 0.1 µM | ≤ 0.1 µM |
